From ChEMBL document CHEMBL3988442, “University of Dundee, Small-Polar-MMV Screening Library” (2021).

By UniProt entry, the sequences of proteins in these tests, tags left out.
UniProt E9BF75, entry or part of it: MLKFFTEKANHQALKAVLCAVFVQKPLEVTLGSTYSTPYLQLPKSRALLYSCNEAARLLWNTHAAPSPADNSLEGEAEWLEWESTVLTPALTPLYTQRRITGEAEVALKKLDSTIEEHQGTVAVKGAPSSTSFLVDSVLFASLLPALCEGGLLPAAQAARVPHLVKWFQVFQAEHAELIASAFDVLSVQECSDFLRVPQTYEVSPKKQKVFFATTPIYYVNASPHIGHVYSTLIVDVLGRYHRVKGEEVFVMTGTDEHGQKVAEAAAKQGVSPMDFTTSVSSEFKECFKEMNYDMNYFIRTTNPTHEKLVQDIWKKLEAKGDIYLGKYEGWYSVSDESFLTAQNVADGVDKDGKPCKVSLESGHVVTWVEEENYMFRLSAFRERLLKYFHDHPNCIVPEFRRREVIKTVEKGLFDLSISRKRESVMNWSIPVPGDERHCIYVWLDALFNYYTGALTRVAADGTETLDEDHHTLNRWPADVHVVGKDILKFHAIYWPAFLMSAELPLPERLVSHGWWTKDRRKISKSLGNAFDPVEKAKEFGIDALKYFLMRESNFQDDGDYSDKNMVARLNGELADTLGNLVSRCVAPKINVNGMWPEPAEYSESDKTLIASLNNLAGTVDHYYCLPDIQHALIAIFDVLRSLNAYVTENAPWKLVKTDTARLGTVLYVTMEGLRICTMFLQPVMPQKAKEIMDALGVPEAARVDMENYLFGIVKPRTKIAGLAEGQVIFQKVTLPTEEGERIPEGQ

LdMetRS: 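Methionyl-tRNA synthetase (putative), Leishmania donovani (UniProt E9BF75). Primary screen of methionyl-tRNA synthetase; the read-out is not stated. The test concentration is not given. Values are per cent inhibition. About 68,000 compounds were tested under these conditions; 0.035% (about 24) showed 50% or more at least once.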
Mtb heat-shock: 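Assay on Mycobacterium tuberculosis, filed only as a heat shock assay from Cornell; the read-out is not stated. The concentration is filed as 10 mM, unlikely as a test dose, so the dose is not known. The record gives no direction; compounds that gave an IC50 in retests scored well above the rest, so higher reads as stronger inhibition. Size under these conditions: about 69,000 compounds, about 930 of them at 50% or above in at least one test.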

All values are in %. The record does not define 0% and 100%; most values in the screen are far below 50% and negative numbers occur (in some assays of this library far below -100). The compounds are a random part of those screened. A dash means the value is not listed here; it may have been measured.

| # | structure | LdMetRS | Mtb heat-shock |
|---|---|---|---|
| 1 | `CN(CCc1ccncc1)C(=O)C1CSCN1C(=O)CC(C)(C)C` (stereo not given) | 14.51 | -19.7 |
| 2 | `Cc1cc(C(=O)NCc2ccccc2CN(C)Cc2ccco2)on1` | -4.891 | 5.84 |
| 3 | `COCCCN1CCCC(c2nccn2CC2CCC2)C1` (stereo not given) | 8.254 | 7.852 |
| 4 | `O=C(c1cc(Cl)ccc1F)N1CCCC1Cn1cccn1` (stereo not given) | 2.186 | -14.26 |
| 5 | `CC(=O)c1ccc(C(=O)N2CCCCC2c2nc[nH]n2)cc1` (stereo not given) | 1.344 | -1.437 |
| 6 | `O=C(O)C(F)(F)F.[H][C@]12C[C@H](C(=O)NC)N(S(C)(=O)=O)[C@@]1([H])CN(C(=O)c1ccccn1)C2` | - | -6.124 |
| 7 | `CNC(=O)NC(=O)C(C)N(C)CCCc1cc(-c2ccccc2)no1` (stereo not given) | 18.1 | 30.83 |
| 8 | `Cc1cccc(C)c1OCCNC(=O)NC(C)c1nncn1C` (stereo not given) | 12.5 | -1.815 |
| 9 | `CNc1nccnc1C1CN(Cc2ccc3[nH]ccc3c2)CCO1` (stereo not given) | 10.13 | 1.407 |
| 10 | `COCCn1ccnc1CN(Cc1ccccn1)CC(C)C` | 15.08 | 33.71 |
| 11 | `COc1cc(CNC(C)Cn2cccn2)cc(Cl)c1OC` (stereo not given) | 22.51 | - |
| 12 | `CN(C)CCN1C(=O)CCC12CCN(Cc1cccs1)CC2.O=C(O)C(F)(F)F.O=C(O)C(F)(F)F` | - | -4.329 |
| 13 | `CC(C)NC(=O)C1CCC2(CCN(Cc3cnn(C)c3)CC2)CO1` (stereo not given) | 10.95 | - |
| 14 | `CCN(Cc1cccc(F)c1)Cc1nc2c(cnn2C)c(=O)[nH]1` | 8.287 | -13.11 |
| 15 | `O=C(c1nnn(-c2ccccc2Cl)c1-c1ccccn1)N1CCSCC1` | 19.42 | -2.401 |
| 16 | `Cc1cccc(CN2C(=O)C[C@H]3[C@@H]2CCN3Cc2ccc(F)cc2)n1` | 9.936 | - |
| 17 | `CCc1noc(C(C)N2CCN(Cc3ncc(C(C)(C)C)o3)CC2)n1` (stereo not given) | 7.143 | -8.282 |
| 18 | `Cc1ccc(NC2CCN(C(=O)c3n[nH]c4ccccc34)CC2)nn1` | 16.08 | -12.48 |
| 19 | `[H][C@@]12COC[C@]1(CNC(=O)c1ccno1)CN(Cc1cc(C)on1)C2` | - | -1.448 |
| 20 | `CCC[C@H]1CN(S(C)(=O)=O)C[C@@H]1NC(=O)COC(C)C` | 20.62 | 10.08 |
| 21 | `CC(C)Cc1cc(NC(=O)c2ccc3[nH]nnc3c2)n(C)n1` | 13.94 | 23.83 |
| 22 | `CN(CCc1cnn(C)c1)C(=O)CN1C(=O)OC[C@@H]1c1ccccc1` | 20.5 | 8.354 |
| 23 | `Cn1ncc2c1CCCN(C(=O)C1CC1)C2` | 5.28 | -13.7 |
| 24 | `CN(CC(=O)Nc1cnn(-c2ccccc2S(C)(=O)=O)c1)C1CC1` | 11.58 | 16.29 |
| 25 | `CCC(C(=O)NC1CCN(S(C)(=O)=O)CC1)n1cccn1` (stereo not given) | 13.17 | -0.9494 |
| 26 | `CNc1nc(CNC(=O)Nc2cccc(COCCOC(C)C)c2)cs1` | 14.29 | -2.801 |
| 27 | `COCCN1CCc2cc(C(=O)NC(C)C)c(NCC(C)C)nc2CC1` | 1.031 | - |
| 28 | `CN(Cc1cn(CC2CCNCC2)nn1)CC1CCCCO1` (stereo not given) | 6.504 | -4.457 |
| 29 | `Cn1ccnc1COc1ccc(CSc2nncn2C2CC2)cc1` | 14.38 | -21.25 |
| 30 | `Cc1noc(C)c1CN1CC[C@H]2OCC[C@@]2(C(=O)N2CCCO2)C1` | 15.02 | - |
| 31 | `O=C(O)C(F)(F)F.[H][C@]12CCN(Cc3ccccn3)C[C@@]1([H])OCCN(C(=O)c1ccsc1)C2` | - | -28.69 |
| 32 | `COc1ncnc2c1CCN(Cc1nccs1)CC2.O=C(O)C(F)(F)F` | - | 10.16 |
| 33 | `Cc1ccc(Cn2c(=O)[nH]c3cccnc3c2=O)cc1` | 5.362 | 0.8226 |
| 34 | `O=C(O)C(F)(F)F.[H][C@@]12CCCO[C@]1([H])[C@@H](OCC1CC1)CN2Cc1c(C)noc1C` | - | 3.962 |
| 35 | `OC(c1cnn(-c2ccccc2)c1)C(F)(F)F` (stereo not given) | 17.04 | -1.348 |
| 36 | `[H][C@@]12CCN(C(=O)C3CCOCC3)[C@]1([H])CCC(=O)N2Cc1csc(C)n1` | - | -5.272 |
| 37 | `O=C1CC(NCc2cnc(N3CCCC3)nc2)CN1c1ccccc1` (stereo not given) | 12.98 | - |
| 38 | `C[C@@H]1CN(C2(C(=O)N3CCNCC3)Cc3ccccc3C2)C[C@H](C)O1` | 4.839 | 10.33 |
| 39 | `CC(C)C(=O)N(C)Cc1nnc2n1CCCCC2` | 3.008 | -24.7 |
| 40 | `C[C@@H](N)C(=O)N1CCC(c2[nH]ncc2-c2ccccc2)CC1` | 24.13 | 16.07 |
| 41 | `Cc1cc(C)cc(N2CC(c3nnc(N)s3)CC2=O)c1` (stereo not given) | 13.88 | 13.81 |
| 42 | `Cc1noc(-c2cccnc2N(C)Cc2cscn2)n1` | 11.88 | -24.79 |
| 43 | `Cc1cc(C(=O)NCCC(=O)N2CCCc3ccccc32)no1` | 12.01 | 6.9 |
| 44 | `O=C(O)C(F)(F)F.O=c1cccnn1CC1CN(CC2CCCC2)Cc2nccn2C1` (stereo not given) | - | -3.552 |
| 45 | `[H][C@]12CC[C@]([H])(CN(C)C1)N(C(=O)c1cc(OC)ccc1OC)C2` | - | -19.81 |
| 46 | `[H][C@@]12CN(Cc3cccnc3)C[C@]1([H])C(=O)NC21CCN(C(=O)C(C)C)CC1` | - | -0.3577 |
| 47 | `CCC1(CC)Cc2ccccc2-c2nc(CN(C)C)nc(O)c21` | 16.2 | 51.81 |
| 48 | `CNC(=O)c1cccc(CNC(C)c2cc(C)ccc2OC(F)F)c1` (stereo not given) | 7.317 | -18.66 |
| 49 | `CC(=O)N1CCCC2(CCN(C(=O)c3nccnc3N)CC2)C1` | 5 | -15.02 |
| 50 | `O=C(CN1CC(c2nc(C3CC3)no2)C1)NCC1CCCO1.O=C(O)C(=O)O` (stereo not given) | - | -3.691 |
| 51 | `Cc1ccc(CN2CCN(Cc3ccncc3)CC2=O)cc1` | 21.4 | 4.549 |
| 52 | `Cc1cc2c(cc1CN1CCCCC1CCn1ccnc1C)OCO2` (stereo not given) | 10.61 | -9.659 |
| 53 | `O=C1CC(c2ccccc2)C2(CCN(CC3CC3)CC2)N1` (stereo not given) | 6.276 | - |

Once more, the final 6:

* CNC(=O)c1cccc(CNC(C)c2cc(C)ccc2OC(F)F)c1 (stereo not given) | LdMetRS: 7.317%; Mtb heat-shock: -18.66%
* CC(=O)N1CCCC2(CCN(C(=O)c3nccnc3N)CC2)C1 | LdMetRS: 5%; Mtb heat-shock: -15.02%
* O=C(CN1CC(c2nc(C3CC3)no2)C1)NCC1CCCO1.O=C(O)C(=O)O (stereo not given) | Mtb heat-shock: -3.691%
* Cc1ccc(CN2CCN(Cc3ccncc3)CC2=O)cc1 | LdMetRS: 21.4%; Mtb heat-shock: 4.549%
* Cc1cc2c(cc1CN1CCCCC1CCn1ccnc1C)OCO2 (stereo not given) | LdMetRS: 10.61%; Mtb heat-shock: -9.659%
* O=C1CC(c2ccccc2)C2(CCN(CC3CC3)CC2)N1 (stereo not given) | LdMetRS: 6.276%